Laboratory results from PubChem BioAssay AID1508600 (Functional Genomics Laboratory (NCATS/FGL), 2020).
The whole screen tested about 53,000 sequences, of which about 3,700 (7%) were called active.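 How the source made its calls: active means gene knockdowns whose robust z-score for IL-1 alpha signal is at least 2 or at most -2, so actives lie on both sides; inactive means the rest.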 Some of the results follow.

Assay: Components of the Cytosolic LPS Sensing Pathway: Gene Identification via Genome-wide siRNA Screen;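 further: robust z of the log signal after scaling to non-targeting control siRNA wells of the plate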
Conditions: RAW264.7 macrophages, IL-1a HTRF, actives lie on both sides, screened at 100 nM (by protocol), cells primed 5 h with Pam3CSK4 first
Summary of the method: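 Using IL-1a HTRF as read-out, the screen measured release from RAW264.7 cells after 48h siRNA knockdown (100 nM), 5 h Pam3CSK4 priming and 24 h cytosolic LipidA. Values were expressed relative to negative-control wells as robust z-scores.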

Row | Sequence | z-score
1 | GGUCAUAGAAUUCAUGUCCTT against E230016K23Rik | inactive: -1.28
2 | GGAAGAAUGGAGCUGUACATT against Pepd | inactive: -0.0255
3 | GCAAGAACUCGCUGAUCCATT against Mtor | inactive: -1.31
4 | GCAAACGUAUCAAGAGCAATT against Naca | inactive: 0.81
5 | GGAUCCAAUCAGGAGAAAGTT against Cers4 | inactive: -1.18
6 | GCAGGUAAAAUACAGGAGCTT against Gdi2 | inactive: 0.188
7 | GAAUGCUCUGAGACUUUUATT against Cd300c2 | active: -2.48
8 | GGGCGUAGAAACAGCAACUTT against Ushbp1 | active: -2.14
9 | GCCUAAGAACAUGCUUUACTT against Cir1 | inactive: 1.11
10 | GGUCCUCUCAGACAUGAAGTT against Pagr1a | inactive: -0.237
11 | CCCUCAAUGCUGGAAAACCTT against Nol4 | inactive: -1.43
12 | CCUUUAAAGGGCAUAUUCATT against Clip1 | inactive: 1.46
13 | GGAUUUCUUCUUAUGAUGATT against Khnyn | inactive: -1.21
14 | GCUGUUUAAAGAUAUGUGGTT against Nfx1 | inactive: -0.403
15 | CCAUCCUAAGCAGAGUCACTT against Frg2f1 | inactive: -0.446
16 | GGCCACCCUUUCAGAAAUGTT against Fut9 | inactive: -0.0689
17 | GGGCUUUCUUGGUUUUAUCTT against Depp1 | inactive: -0.377
18 | GGCAGCCCUUUUGCUAAGATT against Neurod1 | inactive: -0.0737
19 | GGUGGAGGGUUUCAUCAAUTT against Alg3 | inactive: -0.88
20 | GGUUGAACUCUUCUGGGAUTT against Pate14 | inactive: 0.135
21 | CCACCACUCUAUCAGAGGUTT against Evx1 | inactive: -0.669
22 | GGAUGGCGAUAAGAAGAUUTT against C3 | inactive: -0.853

Row | Sequence | z-score
23 | GGAUGAUGAGUUUUUCCAUTT against Tmem40 | inactive: -0.286
24 | GCUUCUAUGAUCGUACGGATT against Nid1 | inactive: 0.812
25 | GGAAGAGGUGCAGCAAAUUTT against Dcaf11 | inactive: 0.437
26 | GCGAAUAUCCAACCUAUCUTT against Itgb7 | inactive: -0.687
27 | GGUCAAAAGAAACAGGUGUTT against Sfi1 | inactive: 0.13
28 | GGCUUGCUAGAUAACAUCATT against Timm44 | inactive: 0.744
29 | CCCUUACUUAGUCUCCACUTT against Olig1 | inactive: -0.025
30 | GGAAUUUCACUAACCUUAGTT against Tert | inactive: 1.55
31 | GGAUCGAGUUUGGUGUAGATT against Usp10 | inactive: -1.39
32 | GGUGAACACGUUUGUAAUGTT against Pcnx | inactive: 0.341
33 | GGCAAAGCAACUUUAUGAATT against Aste1 | inactive: -0.465
34 | GGGCUAGAUGAAUUUUUGATT against Aplnr | inactive: -0.181
35 | CGGGAACAAAUCUAAAAUGTT against Arhgap28 | inactive: 0.723
36 | CCGCCUACGUAAACACCAATT against Tnk2 | inactive: -0.104
37 | GGAUUUGGUGAUCCACUGGTT against Hecw1 | inactive: 0.0465
38 | GCCAGUUAUGAGCAACACCTT against Slc46a1 | active: -2.14
39 | GGUAAAGAAAUCCUUCAAATT against Syt6 | active: 2.1
40 | CGAUUAUCGGCCCAGCAAATT against Bmp1 | inactive: 1.01
41 | GGAAAAUCAAGUGCAAACUTT against Cep43 | inactive: 0.122
42 | GGAAGAUUAUUUUCUUACCTT against Dync2li1 | inactive: 0.558
43 | GCAAAGUUACACAUCAAAGTT against Agtr1a | inactive: 1.02
44 | GGCAGAGAUUAAGAACUGUTT against Adgre5 | inactive: 0.243

Row | Sequence | z-score
45 | CUAGUAGGGUCAGAAUUUUTT against Olfr329 | inactive: -0.0244
46 | CCUCUUAGAUCAGGAUUAUTT against Usp37 | inactive: 0.991
47 | GGAUGAAUGGAAUUUACUGTT against Fbh1 | inactive: 0.406
48 | GGAAAGCACAUCCUCUUUGTT against Gpx6 | inactive: 1.02
49 | GCCACGCAAUAAAGCAUCUTT against Sars | inactive: -0.284
50 | GCACCAAAAUACACGAAAGTT against Ptpdc1 | inactive: -1.11
51 | GUUCCGACUGAACUUGUAUTT against Psmb3 | active: -2.55
52 | GGUUGUAAUAGCCUUAGCCTT against Rassf8 | active: -2.87
53 | GGUGUGUGACUUUUUUUGUTT against Ube2d1 | inactive: 0.329
54 | GGAUGUCAUUAAACCUAAGTT against Rbm34 | inactive: -1.12
55 | GAGCAUCUCAAGGAUCUUCTT against Syngr4 | inactive: 0.661
56 | CCAUGACAAAUUCAAGCAGTT against Atf1 | inactive: 0.254
57 | GGCUAUUAAAGAUACAGCGTT against Sfxn4 | inactive: 0.162
58 | AUGCUUUUUGGAGCCAUAUTT against Olfr307 | active: 3.07
59 | CGUGGUGAUAUUGGAUUAATT against Myef2 | inactive: -0.0288
60 | GCCAAACAUGGAGAGAGCATT against Hid1 | inactive: -0.319
61 | GGACCCUGACAUCAUUGUGTT against Plekhh3 | inactive: 0.237
62 | CAGCAUGAUGAUGGAGACCTT against Sox1 | inactive: 0.708
63 | CCAUCAUUGCUCGUAUUGGTT against Olfr656 | active: -2.9
64 | CCUUAGAUUCACUCAGCACTT against Dbpht2 | inactive: -0.492
65 | GCAUGAGAAGAUUUAUAGGTT against Stac | inactive: 0.397
66 | GGAUCAGUGACUGAUCUUGTT against Myo3a | inactive: 0.279

Row | Sequence | z-score
67 | GGAGAGAUGGUAUUGUUGGTT against Olfr1298 | inactive: -0.0094
68 | CCUAUUAUCUACCUUACAATT against Enpp5 | inactive: 1.13
69 | GGACAAGAAUAAGUACAACTT against Rpl5 | inactive: -0.918
70 | GCUCCCAUUAUCAUUCAAATT against D3Ertd751e | inactive: 1.67
71 | GGAGAAGUGAUUAAAAUCATT against Themis | inactive: 0.535
72 | GGUUACAGCUUUAAGGUAATT against Ercc3 | inactive: -0.817
73 | CCUGGAAUCUGUCCCUCAUTT against Olfr262 | inactive: -0.161
74 | CGCCAUGUUUAACAAAUUGTT against Limk2 | active: -2.22
75 | GGCUCUGUUCUCCACAUUGTT against Phf5a | inactive: -1.6
76 | GGACCUUCGGAAUGACGAGTT against Rhoa | inactive: 1.02
77 | CGAGGACUCAAUAGUAGCCTT against Proser3 | inactive: -0.678
78 | GCAUACCGGAUAAACUGAATT against Apoc1 | inactive: -0.916
79 | GGAGCCCUAUACAGGGUUUTT against Trarg1 | inactive: 0.353
80 | GGCAGAAGAUUGCUUCAGATT against Pm20d2 | inactive: -0.229
81 | GGUCCUCCAAUGGAACAAGTT against Rhd | inactive: -0.0946
82 | GGUCCACCUUCUUACUUUATT against Emc7 | inactive: 0.578
83 | GCAGCUAAAACAAGUUUGATT against Sntg2 | inactive: -0.565
84 | GGUGACAAGGAGAAAGAUGTT against Rnf151 | inactive: -1.58
85 | GGUAGAAGAAUGCAUAAUGTT against Sema3e | inactive: 0.82
86 | GGAUUCUGAAGAAAACGGGTT against Ibsp | inactive: 0.195
87 | GGGCCUAUGUGCUUUAUAUTT against Usp8 | inactive: -0.0584
88 | GGAGCACUUUAAGUUAUACTT against Rnf225 | inactive: 1.73

Row | Sequence | z-score
89 | GCAAGAACGCAAGAUUCAATT against Acoxl | inactive: 0.581
90 | GGAAAGACAGAAUAAUCCATT against Sparc | inactive: 1.03
91 | CCAAACAGAGCCAUUCUAATT against Hykk | inactive: 0.916
92 | CGUAUUGGUGGGAGAAAGATT against Parva | inactive: -0.105
93 | CCCUAAGUCCGUUAAUGUUTT against Wdhd1 | inactive: 0.0708
94 | CCUAAACUACAGGAAUUUATT against D830014E11Rik | inactive: -0.0293
95 | GGAAUUCUCUUAGUCCCUCTT against Vmn1r32 | inactive: -0.603
96 | GCCUUCUUCUACCAUAGCATT against Thyn1 | inactive: -1.64
97 | GGGACCAGAACAAAUACAATT against Klc3 | active: 4.06
98 | GGUUCUACCUCAAGAUGUUTT against Srd5a2 | inactive: 0.0188
99 | GGCGUGAUAGCUGGACUUATT against Eola1 | inactive: 0.439
100 | GGCCCACAGGAACAUCCUATT against Zbtb8b | inactive: -0.134
101 | CCAUUCGAUACCUCGUGCATT against Dhps | inactive: -0.249
102 | GGUGAAUGCUUGUCUGCACTT against Sapcd1 | inactive: -0.624
103 | GGAUCUUGGAUAAAGUGUGTT against Gpr180 | inactive: 1.73
104 | CCCACAGUUCUGAAGGGAGTT against Olfr1215 | inactive: -0.518
105 | CGAUUUUCCUCAAUAUCUCTT against Pcdhgc4 | inactive: -0.246
106 | GGAAUUCUUCAGGUGGAUATT against Ginm1 | inactive: 0.128
107 | CGAAGACGUAAUUACGAAATT against Pla2g4d | inactive: -0.781

Nos. 45 through 65 from above:
Row | Sequence | z-score
45 | CUAGUAGGGUCAGAAUUUUTT against Olfr329 | inactive: -0.0244
46 | CCUCUUAGAUCAGGAUUAUTT against Usp37 | inactive: 0.991
47 | GGAUGAAUGGAAUUUACUGTT against Fbh1 | inactive: 0.406
48 | GGAAAGCACAUCCUCUUUGTT against Gpx6 | inactive: 1.02
49 | GCCACGCAAUAAAGCAUCUTT against Sars | inactive: -0.284
50 | GCACCAAAAUACACGAAAGTT against Ptpdc1 | inactive: -1.11
51 | GUUCCGACUGAACUUGUAUTT against Psmb3 | active: -2.55
52 | GGUUGUAAUAGCCUUAGCCTT against Rassf8 | active: -2.87
53 | GGUGUGUGACUUUUUUUGUTT against Ube2d1 | inactive: 0.329
54 | GGAUGUCAUUAAACCUAAGTT against Rbm34 | inactive: -1.12
55 | GAGCAUCUCAAGGAUCUUCTT against Syngr4 | inactive: 0.661
56 | CCAUGACAAAUUCAAGCAGTT against Atf1 | inactive: 0.254
57 | GGCUAUUAAAGAUACAGCGTT against Sfxn4 | inactive: 0.162
58 | AUGCUUUUUGGAGCCAUAUTT against Olfr307 | active: 3.07
59 | CGUGGUGAUAUUGGAUUAATT against Myef2 | inactive: -0.0288
60 | GCCAAACAUGGAGAGAGCATT against Hid1 | inactive: -0.319
61 | GGACCCUGACAUCAUUGUGTT against Plekhh3 | inactive: 0.237
62 | CAGCAUGAUGAUGGAGACCTT against Sox1 | inactive: 0.708
63 | CCAUCAUUGCUCGUAUUGGTT against Olfr656 | active: -2.9
64 | CCUUAGAUUCACUCAGCACTT against Dbpht2 | inactive: -0.492
65 | GCAUGAGAAGAUUUAUAGGTT against Stac | inactive: 0.397
